Measurements as given in publication PMC11374535.
For at least one entry, the source does not settle the construct or the ends of the probe. At least one verdict was read from the data and is not stated in words by the source. Where a protein sequence is shown, tags need not be part of it.

Target: T1, SlMYB86 (Solanum lycopersicum (tomato)) (UniProt A0A3Q7F5S7)
T1 sequence (looked up): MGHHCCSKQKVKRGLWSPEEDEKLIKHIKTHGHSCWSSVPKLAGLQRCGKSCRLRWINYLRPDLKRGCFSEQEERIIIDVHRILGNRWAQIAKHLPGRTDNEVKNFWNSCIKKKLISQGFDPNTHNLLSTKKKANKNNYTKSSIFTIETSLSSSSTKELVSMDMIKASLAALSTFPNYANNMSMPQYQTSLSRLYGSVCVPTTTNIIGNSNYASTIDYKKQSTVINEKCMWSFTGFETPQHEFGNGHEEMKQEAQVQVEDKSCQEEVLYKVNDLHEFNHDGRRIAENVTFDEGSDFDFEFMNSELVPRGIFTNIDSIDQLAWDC
Assay: EMSA
Settings: LightShift Chemiluminescent EMSA Kit (Thermo Fisher) guidelines; pH and temperature not stated; recombinant protein; residues 1-324; protein details: His (pET28a); label: biotin (labelled probe, unlabelled as competitor)

Sequence	binding result
TTCTCAATGAAGAGTCAACTGATCCTTTGGTAATAC (double strand) [SlTrxh promoter C1 probe]	binds
CAAATGATTGAGATTTAACTGGATTGTGATGCATTG (double strand) [SlTrxh promoter C2 probe]	binds
